In PubChem BioAssay AID540303 (National Center for Advancing Translational Sciences (NCATS), 2011):
About 1,000 (0.3%) of roughly 330,000 compounds were called active. Inconclusive results, whose numbers are uncertain, are shown with a selection of clear calls. The call rests on the fitted dose curve; in most records, active means well fitted inhibition curve with a large enough effect; inconclusive means small, poorly fitted or top-dose-only effect; inactive means no such curve, though single readings can be large or run the other way; tested in mouse RAW 264.7 cells. A potency beside an inconclusive call is a rough fit, not a confirmed value.

Assay: qHTS for Inhibitors of Cell Surface uPA Generation; further: nearly all actives have a fitted effect of over 55% in size
Settings: cell surface uPA generation assay; series mostly up to 38.3 µM; activity change, negative = inhibition: at the top concentration
In short: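 ATP-Lite luminescence in RAW 264.7 cells after 24 h of exposure to compound, tested up to 38.3 uM final in 1:5 steps. Raised ATP reflects inhibition of uPA-dependent LF delivery to the cytoplasm.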
On the % scale 0 is the no-effect control and ±100 the full control effect; potency means the concentration at half of the fitted maximal effect.

Row | SMILES | Potency | activity change, negative = inhibition
1 | CCN(CC(=O)Nc1ccc(NC(C)=O)cc1)S(=O)(=O)/C=C/c1ccccc1 | inconclusive: 0.01 µM [inhibitor, full curve, poor fit] | 
2 | Cc1nc([N+](=O)[O-])c(Br)n1Cc1ccc(Cl)c(Cl)c1 | inconclusive: 8.91 µM [inhibitor, partial curve, poor fit] | 
3 | CC1(C)N=c2ccc([N+](=O)[O-])c(N)c2=[N+]1[O-] | active: 10 µM | 
4 | Fc1ccccc1-c1ccc(/C=N/Nc2nc3ccccc3[nH]2)o1 | active: 3.98 µM | 
5 | Cc1cc(C)n2nc(CNS(=O)(=O)c3c(F)c(F)c(F)c(F)c3F)nc2n1 | inconclusive: 1 µM [inhibitor, partial curve, poor fit] | 
6 | Cc1cccc(/C(N)=N/OC(=O)N2CCOCC2)c1 | inconclusive: 8.91 µM [inhibitor, partial curve] | 
7 | Cc1ccccc1NC(=O)c1nc(S(C)(=O)=O)ncc1Cl | inconclusive: 2 µM [inhibitor, full curve, poor fit] | 
8 | CCCCNc1c(-c2cccc(-c3ccc(OC)cc3)c2)nc2cc(C)ccn12 | inconclusive: 11.2 µM [inhibitor, single point] | 
9 | CN(C(=O)c1ccc(NC(=O)Cc2cccc(NC(=O)C3CCCN(C(=O)C4CC4)C3)c2)cc1)C1CC1 (stereo unspecified) | inconclusive: 12.6 µM [inhibitor, partial curve, poor fit] | 
10 | COC/C=C/C1=CC2=CC(=O)C(C)(OC(=O)c3cnc4ccccc4n3)C(=O)C2=CN1c1ccccc1 (stereo unspecified) | inconclusive: 12.6 µM [inhibitor, single point] | 
11 | O=C(NCc1ccc(Cl)cc1)c1cc([N+](=O)[O-])ccc1Cl | inconclusive: 3.55 µM [inhibitor, single point] | 
12 | O=C(/C=C/c1ccc(O)c(O)c1)NC(=O)c1ccccc1O | inconclusive: 10 µM [inhibitor, partial curve, poor fit] | 
13 | N#Cc1c2n(c3c(N)ncnc13)CCCCC2 |  | inactive: 0.137%
14 | c1csc(CCNc2ncnc3sc4c(c23)CCC4)c1 | inconclusive: 11.2 µM [inhibitor, partial curve, poor fit] | 
15 | CNCCC=C1c2ccccc2CCc2ccccc21 |  | inactive: 18.5%
16 | CCN(c1ccc(NC(=O)c2cccc(S(=O)(=O)N3CCN(C)CC3)c2)cc1)C(C)C | inconclusive: 8.91 µM [inhibitor, single point] | 
17 | CCN1CCN(CCNC(=O)c2ccc(/C=C3\Sc4ccccc4N(Cc4ccccc4F)C3=O)cc2)CC1 | inconclusive: 12.6 µM [inhibitor, single point] | 
18 | CC(Sc1nnc2ccccn12)C(=O)Nc1ncc(Cl)cc1Cl (stereo unspecified) |  | inactive: 5.45%
19 | Cc1ccc(C(=O)NC2CCCCCCC2)c(Cl)c1 | inconclusive: 10 µM [inhibitor, partial curve, poor fit] | 
20 | COc1ccc(-c2nc(C3CCCCC3)c3cc(OC)ccc3n2)cc1 | inconclusive: 2 µM [inhibitor, single point] | 
21 | COc1ccccc1N1CC(C)(C)C(=O)N(C(=O)c2ccc(Cl)cc2)C1=S | inconclusive: 8.91 µM [inhibitor, single point] | 
22 | c1cnc2c(OCc3cn4cccnc4n3)cccc2c1 |  | inactive: 0.665%

From no. 4 up to 7, copied from above:
Row | SMILES | Potency | activity change, negative = inhibition
4 | Fc1ccccc1-c1ccc(/C=N/Nc2nc3ccccc3[nH]2)o1 | active: 3.98 µM | 
5 | Cc1cc(C)n2nc(CNS(=O)(=O)c3c(F)c(F)c(F)c(F)c3F)nc2n1 | inconclusive: 1 µM [inhibitor, partial curve, poor fit] | 
6 | Cc1cccc(/C(N)=N/OC(=O)N2CCOCC2)c1 | inconclusive: 8.91 µM [inhibitor, partial curve] | 
7 | Cc1ccccc1NC(=O)c1nc(S(C)(=O)=O)ncc1Cl | inconclusive: 2 µM [inhibitor, full curve, poor fit] | 

The list continues:

Row | SMILES | Potency | activity change, negative = inhibition
23 | O=c1c2c([nH]c3ccccc13)CCCCCC2 |  | inactive: 5.05%
24 | O=C(Cn1cnc2ccccc2c1=O)c1ccc(Cl)cc1 |  | inactive: 8.51%
25 | N#C/C(=C\c1ccccc1C(F)(F)F)C(=O)Nc1ccccc1 |  | inactive: -5.13%
26 | Cc1ccc(C)c(-n2c(C)cc(/C=N/NC(=O)c3c(C)nc4cc(C)ccn34)c2C)c1 |  | inactive: -5.49%
27 | Cc1ccc(NS(=O)(=O)c2ccc3c(c2)n(C)c(=O)n3C)cc1C | inconclusive: 11.2 µM [inhibitor, partial curve, poor fit] | 
28 | O=c1cc2c(nn1Cc1ccccc1)-c1ccccc1CC2 |  | inactive: -0.234%
29 | COCCNC(=S)Nc1ccc(N2CCOCC2)c(S(=O)(=O)Nc2ccccc2OC)c1 | inconclusive: 6.31 µM [inhibitor, partial curve, poor fit] | 
30 | C=CC[C@@H](CC(=O)N(CCO)Cc1ccccc1)C(=O)NC[C@@H](OC(=O)[C@@H](CC=C)Cc1ccc(F)cc1)c1ccccc1 | inconclusive: 28.2 µM [inhibitor, single point] | 
31 | CC1(C)CC(=O)C(C=NCCN2CCN(C(=O)CCl)CC2)=C(O)C1 | inconclusive: 6.31 µM [inhibitor, partial curve, poor fit] | 
32 | COc1cc2c(cc1NC(=O)CN(C)Cc1ccc(OC)c(OC)c1)oc1ccccc12 | inconclusive: 20 µM [inhibitor, single point] | 
33 | Cc1ccccc1NC(=O)NCCCCc1ccccc1 | inconclusive: 14.1 µM [inhibitor, partial curve, poor fit] | 
34 | CCn1c(O)c(N=NC(=S)NCC2CCCO2)c2ccccc21 (stereo unspecified) | inconclusive: 28.2 µM [inhibitor, single point] | 
35 | O=[N+]([O-])C(=C1Nc2ccccc2N1)C(Cl)=C(Cl)Cl | inconclusive: 6.31 µM [inhibitor, single point] | 
36 | COc1cccc(NC(=O)n2ncc3c(C)cccc32)c1 | inconclusive: 6.31 µM [inhibitor, partial curve, poor fit] | 
37 | CC(C)(C)OC(=O)N1CCC(C(=O)Nc2ccc3c(c2)CCC3)CC1 | inconclusive: 11.2 µM [inhibitor, single point] | 
38 | CCOc1ccc(S(=O)(=O)n2cc(F)c(=O)[nH]c2=O)cc1[N+](=O)[O-] | inconclusive: 3.16 µM [inhibitor, partial curve, poor fit] | 
39 | Cc1ccc(-c2ccc(SCC(=O)NC3CCCCC3)nn2)cc1 | inconclusive: 0.794 µM [inhibitor, full curve, poor fit] | 
40 | O=C(Nc1sc2c(c1C(=O)O)CCCC2)c1cccc(Cl)c1 | inconclusive: 12.6 µM [inhibitor, single point] | 
41 | COc1ccc(-c2c(-c3cc(OC)c(OC)c(OC)c3)noc2C)cn1 | inconclusive: 0.794 µM [inhibitor, full curve, poor fit] | 
42 | O=C(Nc1cccc(-c2csc(Nc3ccccc3)n2)c1)c1ccccc1 | inconclusive: 10 µM [inhibitor, single point] | 
43 | Cc1cc(C(C)(C)C)cc(C)c1C[n+]1ccc2ccccc2c1 | active: 4.47 µM | 
44 | Cc1cc(N2CCN(C)CC2)nc2ccc(NC(=S)N3CCCCCC3)cc12 | inconclusive: 10 µM [inhibitor, partial curve, poor fit] | 

Row | SMILES | Potency | activity change, negative = inhibition
45 | COc1ccc(OC)c(/C=C/C(=O)OCC(=O)N2CCCC2)c1 |  | inactive: -7.15%
46 | COc1ccc2c(c1)c(C(=O)N/N=C/c1ccc(Br)cc1)c(C)n2C | active: 11.2 µM | 
47 | COc1ccc(OC)c(-c2nnc3n2N=C(c2ccc(OC)c(OCC4CC4)c2)CS3)c1 | inconclusive: 1 µM [inhibitor, full curve, poor fit] | 
48 | Cc1nn(C(C)CC(=O)O)c(C)c1Br (stereo unspecified) |  | inactive: 8.38%
49 | Cc1ccc(-n2nc3c(=O)n(CCCC(=O)NCc4ccccc4C)nc(C)c3c2C)cc1 | inconclusive: 1.41 µM [inhibitor, full curve] | 
50 | COc1ccc(NC(=O)c2ccccn2)cc1OC | inconclusive: 12.6 µM [inhibitor, partial curve, poor fit] | 
51 | C=CCn1c(SCC(=O)c2ccc(O)c(O)c2)nnc1-c1ccccc1OC | inconclusive: 8.91 µM [inhibitor, single point] | 
52 | O=C(c1cccc(N2CCCC2=O)c1)N1CCN(c2cccc(Cl)c2)CC1 | inconclusive: 1.26 µM [inhibitor, single point] | 
53 | O=C(Nc1ccc(Cl)cc1)Nc1nc(-c2ccccc2O)cs1 | inconclusive: 28.2 µM [inhibitor, single point] | 
54 | Cc1ccc(-c2csc(N/N=C/c3ccco3)n2)c(C)c1 |  | inactive: 3.34%
55 | Cc1ccc(C)c(S(=O)(=O)N2CCN(CC(=O)N3CCc4ccccc4C3)CC2)c1 |  | inactive: -0.514%
56 | O=C(Nc1c2c(nn1-c1ccc(F)cc1)CS(=O)(=O)C2)C1CCCC1 | inconclusive: 1.12 µM [inhibitor, full curve, poor fit] | 
57 | CC(C)(C)OC(=O)NCCCC[C@H](NC(=O)c1nc[nH]c1C(=O)NCc1ccccc1)C(=O)OC(C)(C)C | inconclusive: 28.2 µM [inhibitor, single point] | 
58 | Cc1nn(-c2ccc(Cl)c(Cl)c2)c(=O)c2ccccc12 |  | inactive: -3.14%
59 | Cn1nnnc1Sc1ncnc2scc(-c3ccc(Cl)cc3)c12 | inconclusive: 7.08 µM [inhibitor, partial curve] | 
60 | Cc1nn(-c2ccccc2)c(Cl)c1/C=N/NC(=O)c1ccn[nH]1 | inconclusive: 1 µM [inhibitor, partial curve, poor fit] | 
61 | CN(C(=S)Nc1ccc(SC(F)F)cc1)C(c1ccccc1)c1ccccc1 | inconclusive: 28.2 µM [inhibitor, single point] | 
62 | CC(CNC(=O)CN1C(=O)C(=O)N(C2CCCC2)C1=O)c1ccccc1 (stereo unspecified) | inconclusive: 0.316 µM [inhibitor, full curve, poor fit] | 
63 | Cc1cc(C)c(/C=N/NC(=O)c2nnn(-c3nonc3N)c2CN2CCC(C)CC2)c(C)c1 |  | inactive: -1.04%
64 | COc1ccc2c(c1)C(=NNc1ccc(C(=O)O)cc1)c1cc(OC)ccc1-2 |  | inactive: -6.73%
65 | OC1c2cc(Br)ccc2N=C2CCCN21 (stereo unspecified) | inconclusive: 2.51 µM [inhibitor, partial curve, poor fit] | 
66 | CCCCc1ccc(NS(=O)(=O)c2cccc(C(=O)N3CCCN(C)CC3)c2)cc1 | inconclusive: 4.47 µM [inhibitor, partial curve, poor fit] | 
